{"source": "PubChem BioAssay AID540276", "about": "(National Center for Advancing Translational Sciences (NCATS), 2011)", "note": "Out of some 300,000 compounds screened, about 5,400 (1.8%) were called active. Inconclusive results, whose numbers are uncertain, are shown with a selection of clear calls. The call rests on the fitted dose curve; tested in HEK293 cells. Potencies of inconclusive entries are doubtful fits and often do not repeat. On the % scale 0 is the no-effect control and ±100 the full control effect; potency means the concentration at half of the fitted maximal effect."}
{"experiment": "qHTS for inhibitors of binding or entry into cells for Marburg Virus", "conditions": "Marburg virus pseudotyped entry inhibition, cell reporter; activity change, negative = inhibition: at 37.8 µM (top of the series) unless noted"}
{"smiles": "CCOc1cc(S(=O)(=O)NC2CCCCCC2)ccc1F", "Potency": "inactive"}
{"smiles": "COc1cc(S(=O)(=O)N(Cc2ccccc2)Cc2ccccn2)ccc1-n1cnnn1", "Potency": "inconclusive: 0.082 µM [inhibitor, full curve, poor fit]"}
{"smiles": "Cc1ccc(C(=O)NC(=S)NNS(=O)(=O)c2ccccc2)cc1", "Potency": "inactive"}
{"smiles": "Cc1cc(NC(=O)C(C)Oc2ccccc2)no1", "note": "(stereo unspecified)", "Potency": "inconclusive: 6.31 µM [inhibitor, single point]"}
{"smiles": "O=C(Nc1nnc(-c2ccccc2Cl)o1)c1ccco1", "Potency": "inactive"}
{"smiles": "CN(c1ccccc1)S(=O)(=O)c1ccc2[nH]c(=O)oc2c1", "Potency": "inactive"}
{"smiles": "O=C(NCc1ccccn1)c1cccc(S(=O)(=O)Nc2ccc(SC(F)F)cc2)c1", "Potency": "inconclusive: 5.62 µM [inhibitor, single point]"}
{"smiles": "Cc1cc(C)cc(C(=O)NCCCc2ccccc2)c1", "Potency": "inactive"}
{"smiles": "CCN(CC)CCCN(C(=O)c1ccccc1F)c1nc(-c2ccc(OC)cc2)cs1", "Potency": "inconclusive: 7.94 µM [inhibitor, partial curve, poor fit]"}
{"smiles": "O=C(O)Cc1sc(Nc2ccc(F)cc2)nc1-c1cccs1", "Potency": "inconclusive: 1.58 µM [activator, partial curve, poor fit]"}
{"smiles": "CCc1nnc(NC(=O)C2Cc3ccccc3CN2S(=O)(=O)c2c(C)c(C)cc(C)c2C)s1", "note": "(stereo unspecified)", "Potency": "inactive"}
{"smiles": "Cc1cccc(C(=O)NNC(=O)c2cccc([N+](=O)[O-])c2)c1", "Potency": "inconclusive: 35.5 µM [activator, single point]"}
{"smiles": "CC(C)Oc1ccc(S(=O)(=O)N2CCOCC2)cc1NC(=O)C1CCC1", "Potency": "inactive"}
{"smiles": "Cc1cc(OCCn2c(CCNC(=O)C3CCCCC3)nc3ccccc32)ccc1Cl", "Potency": "inactive"}
{"smiles": "O=C1N(c2cccc(Cl)c2)C(c2cccnc2)N2CCCN12", "note": "(stereo unspecified)", "Potency": "inactive"}
{"smiles": "COc1cc2[nH]c3c(=O)n4c(nc3c2cc1OC)SCCC4", "Potency": "inconclusive: 7.08 µM [inhibitor, full curve, poor fit]"}
{"smiles": "CC(C)CNC(=O)NC(=O)COC(=O)c1ccccc1Sc1ccc(C(F)(F)F)cc1[N+](=O)[O-]", "Potency": "inconclusive: 35.5 µM [inhibitor, single point]"}
{"smiles": "O=C1c2ccc(Br)cc2C(=O)N1c1ccc(Cc2ccncc2)cc1", "Potency": "inconclusive: 1.78 µM [activator, partial curve, poor fit]"}
{"smiles": "Cc1cc(C)c(C#N)c(OCC(=O)c2ccc(Br)cc2)n1", "Potency": "inactive"}
{"smiles": "O=C(N1CCN(c2ccccn2)CC1)C(Cl)(Cl)Cl", "Potency": "inactive"}
{"smiles": "O=C(Nc1ccc2nn(-c3ccccc3)nc2c1)c1ccco1", "Potency": "inconclusive: 1.41 µM [activator, partial curve, poor fit]"}
{"smiles": "COc1ccc(Br)cc1CN1CCN(S(=O)(=O)Cc2ccccc2)CC1", "Potency": "inconclusive: 35.5 µM [activator, single point]"}
{"smiles": "CCOC(=O)c1c(/N=C/C2C(=O)NC(=S)NC2=O)sc2c1CCC2", "Potency": "inconclusive: 0.316 µM [activator, full curve, poor fit]"}
{"smiles": "Clc1ccc(C2=CSC3=NCCN23)c(Cl)c1", "Potency": "inactive"}
{"smiles": "CCOc1ccc(/C=C2\\SC(=O)N(CCNC(=O)C3COc4ccccc4O3)C2=O)cc1OC", "note": "(stereo unspecified)", "Potency": "inconclusive: 35.5 µM [inhibitor, single point]"}
{"smiles": "CCCCNC(=O)C(=O)N/N=C/c1ccc(OCC(=O)Nc2cccc(OC)c2)c(OC)c1", "Potency": "inconclusive: 11.2 µM [inhibitor, single point]"}
{"smiles": "Oc1ccccc1Oc1ncc(Br)c(N2CCOCC2)n1", "Potency": "inactive"}
{"smiles": "CCC(=NCc1ccco1)c1c(O)n(-c2ccccc2)c(=O)[nH]c1=O", "Potency": "inactive"}
{"smiles": "C/C(CC(=O)Nc1ccc(N(C)C)cc1)=N\\NC(=O)c1ccccn1", "Potency": "inconclusive: 3.55 µM [activator, single point]"}
{"smiles": "CCOc1ccc(CCNC(=O)c2cc3c(=O)n(C)c4ccccc4c3n2C)cc1OCC", "Potency": "inactive"}
{"smiles": "O=C(COC(=O)c1cnccn1)c1ccc(-c2ccccc2)cc1", "Potency": "inconclusive: 0.708 µM [inhibitor, partial curve, poor fit]"}
{"smiles": "CCN(CC)S(=O)(=O)c1ccc(N2CCN(CCOc3ccc(OC)cc3)CC2)nc1", "Potency": "active: 11.2 µM"}
{"smiles": "COc1cc(OC)cc(C(=O)NCCSc2c[nH]c3ccccc23)c1", "Potency": "inconclusive: 2.82 µM [inhibitor, full curve]"}
{"smiles": "CC1=NN(c2nc(-c3ccc(C)cc3)cs2)C(=O)C1N=Nc1ccccc1O", "note": "(stereo unspecified)", "Potency": "inconclusive: 5.62 µM [inhibitor, full curve, poor fit]"}
{"smiles": "COc1cc(/C=N/NC(=O)c2cc3ccccc3cc2O)ccc1OCCN1CCCCC1", "Potency": "inconclusive: 20.6 µM [inhibitor, partial curve, poor fit]"}
{"smiles": "Cc1ccc2nc(-c3ccccn3)[nH]c2c1", "Potency": "inconclusive: 6.31 µM [inhibitor, partial curve, poor fit]"}
{"smiles": "O=C1NC(c2ccc3c(c2)OCO3)Nc2ccccc21", "note": "(stereo unspecified)", "Potency": "inactive"}
{"smiles": "COc1cc(NC(=O)C(C)Oc2ccccc2)c(OC)cc1NC(=O)c1ccccc1", "note": "(stereo unspecified)", "Potency": "inconclusive: 17.8 µM [inhibitor, single point]"}
{"smiles": "CCOc1ccc(C(=O)COC(=O)c2c(-c3ccccc3)noc2C)cc1", "Potency": "inconclusive: 7.08 µM [inhibitor, full curve, poor fit]"}
{"smiles": "CCN(CC)S(=O)(=O)c1cccc(NC(=O)c2cccc(S(=O)(=O)N3CCCC3)c2)c1", "Potency": "inconclusive: 35.5 µM [inhibitor, single point]"}
{"smiles": "CC(C)Cn1c(-c2cccs2)nc2ccccc21", "Potency": "inactive"}
{"smiles": "Cc1ccc(C2c3c(oc4ccccc4c3=O)C(=O)N2CCCN2CCOCC2)o1", "note": "(stereo unspecified)", "Potency": "inactive"}
{"smiles": "Clc1ccc(Nc2nc3cccnc3s2)cc1", "Potency": "inactive"}
{"smiles": "Cc1nn2c(N3CCCC3)cc(C(C)C)nc2c1-c1ccccc1", "Potency": "inactive"}
{"smiles": "O=[N+]([O-])c1cccc(CN2CCN(S(=O)(=O)Cc3ccccc3)CC2)c1", "Potency": "inconclusive: 17.8 µM [activator, single point]"}
{"smiles": "O=[N+]([O-])c1cccc(-c2n[nH]c(=S)n2-c2ccccc2)c1", "Potency": "inconclusive: 3.55 µM [activator, partial curve, poor fit]"}
{"smiles": "Cc1ccc(O)c(NC(=O)C2CCCN2C(=O)OCc2ccccc2)c1", "note": "(stereo unspecified)", "Potency": "inactive"}
{"smiles": "CCC(C)(C)NC(=O)C(c1ccc(OC)cc1)N(C(=O)CCC(=O)Nc1cc(C)on1)c1ccc(OC)cc1OC", "note": "(stereo unspecified)", "Potency": "inconclusive: 17.8 µM [inhibitor, partial curve, poor fit]"}
{"smiles": "CC(C)(C)c1ccc(C(=O)NC2(C(F)(F)F)NC(=O)N(CCc3ccccc3)C2=O)cc1", "note": "(stereo unspecified)", "Potency": "inconclusive: 25.1 µM [inhibitor, single point]"}
{"smiles": "CCOCC1(CCc2ccccc2)C(=O)NC(=S)NC1=O", "Potency": "inconclusive: 5.62 µM [inhibitor, single point]"}
{"smiles": "Cc1ccccc1OCC(=O)Nc1ccccc1N1CCOCC1", "Potency": "inconclusive: 8.91 µM [inhibitor, partial curve, poor fit]"}
{"smiles": "COc1ccc(Nc2nc(N)nc(CSC(=S)N3CCC(C)CC3)n2)cc1", "activity change, negative = inhibition": "inconclusive: 33.2% [activator]"}
{"smiles": "Cc1ccc(CCn2c3c(c4ccccc42)CN(C)CC3)cn1", "Potency": "inconclusive: 29.1 µM [inhibitor, single point]"}
{"smiles": "CCOc1ccc(S(=O)(=O)N2CCC(C(=O)NCC3CCCO3)CC2)cc1C", "note": "(stereo unspecified)", "Potency": "inconclusive: 35.5 µM [activator, single point]"}
{"smiles": "COc1cc(/C=C2\\C(=O)ON=C2c2ccccc2)cc(Br)c1O", "Potency": "inactive"}
{"smiles": "COCCn1c(SC(C)C(=O)NCC2CCCO2)nc2sc3c(c2c1=O)CCC3", "note": "(stereo unspecified)", "Potency": "inactive"}
{"smiles": "COc1ccccc1C1=NNC(=NCc2ccccc2)SC1", "Potency": "inconclusive: 11.2 µM [inhibitor, single point]"}
{"smiles": "O=c1cc(-c2ccccc2)[nH]n2cnnc12", "Potency": "inactive"}
{"smiles": "O=C(c1csc2c1CCCC2)n1cccn1", "Potency": "inactive"}
{"smiles": "COc1ccc(-c2cc(C(=O)N3CCN(c4ccccc4)CC3)c3ccccc3n2)cc1OC", "Potency": "inconclusive: 11.2 µM [inhibitor, single point]"}
{"smiles": "Cc1cc(=O)oc2cc(OCC(=O)N/N=C/c3ccccc3[N+](=O)[O-])ccc12", "Potency": "inconclusive: 20 µM [inhibitor, single point]"}
{"smiles": "CCN1CCCC1CNCc1cc(OC)c(OC)c(OC)c1", "note": "(stereo unspecified)", "Potency": "inactive"}
{"smiles": "COc1ccc(C2=NN(C(C#N)c3ccc(OC)cc3)C(c3ccccc3)C2)cc1", "note": "(stereo unspecified)", "Potency": "inconclusive: 10 µM [inhibitor, partial curve, poor fit]"}
{"smiles": "N#Cc1ccc(-n2nnc3ccccc3c2=O)c([N+](=O)[O-])c1", "Potency": "inconclusive: 12.6 µM [activator, single point]"}
{"smiles": "CC1CCCC(C)N1C(=O)c1cccc2c1-c1ccccc1/C2=N/O", "note": "(stereo unspecified)", "Potency": "inconclusive: 10 µM [activator, partial curve, poor fit]"}
{"smiles": "COc1cc(C(C)=O)ccc1OCC(=O)c1cc(C)n(C2CC2)c1C", "Potency": "inconclusive: 14.6 µM [inhibitor, partial curve, poor fit]"}
{"smiles": "CCOc1ccccc1N(C)C(=O)Cn1nc(Cc2ccncc2)c2ccccc2c1=O", "Potency": "inconclusive: 28.2 µM [inhibitor, single point]"}
{"smiles": "Clc1ccc(N2CCN(c3ccnc(Cl)n3)CC2)cc1", "Potency": "inconclusive: 22.4 µM [inhibitor, single point]"}
{"smiles": "Cc1ccc(COc2ccc(/C=N/O)cc2)cc1", "Potency": "inconclusive: 29.1 µM [inhibitor, single point]"}
{"smiles": "Cc1onc(-c2ccc(Cl)cc2)c1-c1ccnn1S(=O)(=O)c1cccc(C(F)(F)F)c1", "Potency": "active: 10 µM"}
{"smiles": "CCCN(CCC)CCCNC(=O)Cn1ncc2c3ccccc3n(Cc3ccccc3F)c2c1=O", "Potency": "inconclusive: 5.62 µM [inhibitor, full curve, poor fit]"}
